Laboratory results as given in the supplement of paper PMC8732350.
Structures can show the parent of a compound that is named as a salt. ± gives the standard deviation of the averaged measurements. The list shows a part of the results. Repeats in this data set agree poorly, so a single value says little.

system: A549; test: surface PD-L1 immunofluorescence intensity relative to IFN-gamma-only control (ratio); higher = more PD-L1 expression; conditions: 10 µM; exposure time 24 h; IFN-gamma 100 ng/mL

Row | SMILES | surface PD-L1 immunofluorescence intensity
1 | CCCN(C/C=C/I)C1CCc2ccc(O)cc2C1 (stereo not given) [7-Hydroxy-PIPAT maleate] | 1.09
2 | O=C(O)CNC(=O)c1c(O)c2ccccc2n(Cc2ccccc2)c1=O | 1.03
3 | NC1(c2ccccc2Cl)CCCCC1=O (stereo not given) [Norketamine hydrochloride] | 1.03
4 | CC(CCc1ccccc1)NC(C)C(O)c1ccc(O)cc1 (stereo not given) [Nylidrin] | 0.95
5 | COc1cccc(C2(O)CCCCC2CN(C)C)c1 (stereo not given) [Tramadol hydrochloride] | 1.04
6 | CC(=O)OC1CN2CCC1CC2 (stereo not given) [Aceclidine Hydrochloride] | 1.16
7 | CN1C[C@H](C(=O)N[C@]2(C)O[C@@]3(O)[C@@H]4CCCN4C(=O)[C@H](Cc4ccccc4)N3C2=O)C[C@@H]2c3cccc4[nH]cc(c34)C[C@H]21 [Dihydroergotamine mesylate] | 0.984
8 | O=C1NCN(c2ccccc2)C12CCN(CC1COc3ccccc3O1)CC2 (stereo not given) [Spiroxatrine] | 0.998
9 | C[N+]1(C)[C@@H]2CC[C@H]1C[C@@H](OC(=O)C(CO)c1ccccc1)C2 (stereo not given in full) [Methylatropine nitrate] | 1.02
10 | c1ccc2nc(N3CCNCC3)ccc2c1 [Quipazine dimaleate salt] | 0.9
11 | C[N+](C)(C)CCCCCCCCCC[N+](C)(C)C [Decamethonium bromide] | 1.01
12 | Clc1ccc(C2=CCCC3CCC2N3)cn1 (stereo not given) [UB 165 fumarate] | 1.04
13 | CO[C@@H]1[C@H](OC(=O)NC(=O)CCl)CC[C@]2(CO2)[C@H]1[C@@]1(C)O[C@@H]1CC=C(C)C | 1.03
14 | CCCCCCC[n+]1ccc(-c2cc[n+](CCCCCCC)cc2)cc1 [DHBP dibromide] | 0.893
15 | C=CCN1C[C@H](C)N([C@H](c2ccc(C(=O)N(CC)CC)cc2)c2cccc(OC)c2)C[C@H]1C | 1.12
16 | C=CCN1C[C@H](C)N([C@H](c2ccc(C(=O)N(CC)CC)cc2)c2cccc(O)c2)C[C@H]1C | 1.01
17 | O=[N+]([O-])O[C@@H]1CO[C@H]2[C@@H]1OC[C@@H]2O [Isosorbide mononitrate] | 0.999
18 | N=C(N)NN [Aminoguanidine hydrochloride] | 0.935
19 | C[C@H](N)[C@H](O)c1ccc(O)c(O)c1 [Levonordefrin] | 0.998
20 | CC(C)N(CCC(C(N)=O)(c1ccccc1)c1ccccn1)C(C)C (stereo not given) [Disopyramide] | 0.906
21 | CN1[C@@H]2CC[C@H]1C[C@@H](OC(=O)[C@H](CO)c1ccccc1)C2 [Hyoscyamine (Daturine)] | 0.955
22 | CN(C)CCN(C)CCc1ccc(Cl)c(Cl)c1 [BD 1047 dihydrobromide] | 1.02
23 | O=C(O)Cc1cccnc1C(=O)O [Homoquinolinic acid] | 1.06
24 | O=[N+]([O-])c1cc(O)c(O)c([N+](=O)[O-])c1 | 1.01
25 | C[C@H]([C@H](O)CCC(C)(C)O)[C@H]1CC[C@@]2(O)C3=CC(=O)[C@@H]4C[C@@H](O)[C@@H](O)C[C@]4(C)[C@H]3CC[C@]12C [Ecdysone] | 0.971

Row | SMILES | surface PD-L1 immunofluorescence intensity
26 | c1ccc(CCCCN2CCC(c3ccccc3)CC2)cc1 [4-PPBP maleate] | 0.956
27 | C[C@H](N)Cc1cnc[nH]1 [(S)-(+)-a-Methylhistamine dihydrobromide] | 0.966
28 | c1cc2c(cc1[C@H]1OC[C@H]3[C@@H]1CO[C@@H]3c1ccc3c(c1)OCO3)OCO2 [Sesamin (Fagarol)] | 1.05
29 | COc1ccc(CN2CCNCC2)c(OC)c1OC [Trimetazidine dihydrochloride] | 0.939
30 | COc1ccc2c(c1)c(CCN1CCOCC1)c(C)n2C(=O)c1cccc(Cl)c1Cl | 0.942
31 | O=C(N[C@H]1CN2CCC1CC2)c1ccc(Cl)cc1 | 0.938
32 | N#Cc1ccc(N2CCN(C(=O)COc3ccc4[nH]cc(CCN)c4c3)CC2)cc1 [Donitriptan hydrochloride] | 1.04
33 | CC(C)[N+](C)(CCC(C(N)=O)(c1ccccc1)c1ccccc1)C(C)C [Isopropamide iodide] | 0.993
34 | C#C[C@]1(O)CC[C@H]2[C@@H]3CCC4=CC(=O)CC[C@]4(C)[C@H]3CC[C@@]21C [Ethisterone] | 0.91 ± 0.046
35 | O=c1[nH]c2ccccc2n1CCCN1CCC(n2c(=O)[nH]c3cc(Cl)ccc32)CC1 [Domperidone] | 1.19
36 | CC(=O)O[C@@]12CO[C@@H]1C[C@@H](O)[C@@]1(C)C(=O)[C@H](O)C3=C(C)[C@@H](O)C[C@@](O)([C@@H](OC(=O)c4ccccc4)[C@H]21)C3(C)C [10-DAB (10-Deacetylbaccatin)] | 0.914
37 | CC(C)CC(N(C)C)C1(c2ccc(Cl)cc2)CCC1 (stereo not given) [Sibutramine HCl] | 0.974
38 | C=CCN1CC[C@]23c4c5ccc(O)c4O[C@H]2/C(=N/NC(=O)c2ccccc2)CC[C@@]3(O)[C@H]1C5 [Naloxone benzoylhydrazone] | 0.995
39 | CC1(C)CC(O)CC(C)(C)N1[O] | 0.937
40 | CC1(C)CC(O)CC(C)(C)N1[O] [Tempol (4-Hydroxy-TEMPO)] | 0.955
41 | CC(=O)N(C)c1cccc(-c2ccnc3c(C(=O)c4cccs4)cnn23)c1 [Indiplon] | 1.05
42 | N[C@@H](Cn1oc(=O)[nH]c1=O)C(=O)O [L-Quisqualic acid] | 1.12
43 | C[C@H](Cc1ccc(OCC(=O)O)cc1)NC[C@H](O)c1cccc(Cl)c1 | 0.959
44 | S=C(NC1CCCCC1)N1CCC(c2cnc[nH]2)CC1 [Thioperamide] | 1.01
45 | S=C(NC1CCCCC1)N1CCC(c2cnc[nH]2)CC1 [Thioperamide maleate] | 1.08
46 | CN1[C@@H]2CC(O)C[C@H]1[C@@H]1O[C@@H]12 (stereo not given in full) [Scopine] | 0.954
47 | Cc1cccc(C(C)c2c[nH]cn2)c1C (stereo not given) [Medetomidine HCl] | 0.866
48 | Cc1cccc(C(C)c2c[nH]cn2)c1C (stereo not given) [Medetomidine hydrochloride] | 0.976
49 | C=C[C@H]1CN2CC[C@H]1C[C@H]2[C@H](O)c1ccnc2ccccc12 [Cinchonidine] | 1.03
50 | COC[C@H]1OC(=O)c2coc3c2[C@@]1(C)C1=C(C3=O)[C@@H]2CCC(=O)[C@@]2(C)C[C@H]1OC(C)=O [Wortmannin] | 0.975 ± 0.04

A second format for part of the listing above:

| Row | SMILES | surface PD-L1 immunofluorescence intensity |
| --- | --- | --- |
| 36 | CC(=O)O[C@@]12CO[C@@H]1C[C@@H](O)[C@@]1(C)C(=O)[C@H](O)C3=C(C)[C@@H](O)C[C@@](O)([C@@H](OC(=O)c4ccccc4)[C@H]21)C3(C)C [10-DAB (10-Deacetylbaccatin)] | 0.914 |
| 37 | CC(C)CC(N(C)C)C1(c2ccc(Cl)cc2)CCC1 (stereo not given) [Sibutramine HCl] | 0.974 |
| 38 | C=CCN1CC[C@]23c4c5ccc(O)c4O[C@H]2/C(=N/NC(=O)c2ccccc2)CC[C@@]3(O)[C@H]1C5 [Naloxone benzoylhydrazone] | 0.995 |
| 39 | CC1(C)CC(O)CC(C)(C)N1[O] | 0.937 |
